In this test the target is T1, FAM210A (Family With Sequence Similarity 210 Member A) (UniProt Q8BGY7).
T1 sequence: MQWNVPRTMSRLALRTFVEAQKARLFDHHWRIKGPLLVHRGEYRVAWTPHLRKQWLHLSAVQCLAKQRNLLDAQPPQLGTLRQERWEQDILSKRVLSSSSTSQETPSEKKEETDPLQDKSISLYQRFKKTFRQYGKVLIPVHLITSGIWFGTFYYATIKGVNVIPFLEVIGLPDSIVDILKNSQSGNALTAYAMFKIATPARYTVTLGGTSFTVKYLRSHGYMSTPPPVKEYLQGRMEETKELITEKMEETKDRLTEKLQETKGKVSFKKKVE
The test can be described thus: affinity purification with mass spectrometry.

This is an account of results in article doi:10.1101/2023.08.03.551853.

These are yes or no findings as the source states them, for the method shown. In cells and extracts the contact can be indirect. These calls come from enrichment with a bait or labelling near it, and not all partners need be listed.

B1: SUCLG2, the β-subunit in the succinyl-CoA synthetase complex (protein, UniProt Q9Z2I8 39-433)
chain: LNLQEYQSKKLMSEHGVRVQRFFVANTAKEALEAAKRLNAKEIVLKAQILAGGRGKGVFNSGLKGGVHLTKDPKVVGELAQQMIGYNLATKQTPKEGVKVNKVMVAEALDISRETYLAILMDRSHNGPVIVGSPQGGVDIEEVAASSPELIFKEQIDIFEGIKDSQAQRMAENLGFLGSLKNQAADQITKLYHLFLKIDATQVEVNPFGETPEGQVVCFDAKINFDDNAEFRQKDIFAMDDKSENEPIENEAARYDLKYIGLDGNIACFVNGAGLAMATCDIIFLNGGKPANFLDLGGGVKEAQVYEAFKLLTSDPKVEAILVNIFGGIVNCAIIANGITKACRELELKVPLVVRLEGTNVQEAQNILKSSGLPITSAVDLEDAAKKAVASVAKK
For the molecule B1, the binding result is listed as “binds”.
